The target of one assay is vimentin (human) (UniProt P08670). The assay is described as follows: affinity purification with mass spectrometry; SF-TAP of tagged baits overexpressed in HEK293T (Strep-Tactin, then anti-FLAG M2 agarose, FLAG peptide elution; lysis 0.5% NP-40 in TBS, 4 °C); LC-MS/MS; interactions scored by socioaffinity (spoke and matrix evidence), FDR/FPR≤0.1.
Another assay has as its target KIAA0556 (human) (UniProt O60303). Described as above.
The next assay addresses RAB8A (human) (UniProt P61006). Described as above.
A further assay has as its target IFT20 (human) (UniProt Q8IY31). The description is as above.
Another assay concerns the target T1, TRAF3IP1 (human) (UniProt Q8TDR0).
T1 sequence: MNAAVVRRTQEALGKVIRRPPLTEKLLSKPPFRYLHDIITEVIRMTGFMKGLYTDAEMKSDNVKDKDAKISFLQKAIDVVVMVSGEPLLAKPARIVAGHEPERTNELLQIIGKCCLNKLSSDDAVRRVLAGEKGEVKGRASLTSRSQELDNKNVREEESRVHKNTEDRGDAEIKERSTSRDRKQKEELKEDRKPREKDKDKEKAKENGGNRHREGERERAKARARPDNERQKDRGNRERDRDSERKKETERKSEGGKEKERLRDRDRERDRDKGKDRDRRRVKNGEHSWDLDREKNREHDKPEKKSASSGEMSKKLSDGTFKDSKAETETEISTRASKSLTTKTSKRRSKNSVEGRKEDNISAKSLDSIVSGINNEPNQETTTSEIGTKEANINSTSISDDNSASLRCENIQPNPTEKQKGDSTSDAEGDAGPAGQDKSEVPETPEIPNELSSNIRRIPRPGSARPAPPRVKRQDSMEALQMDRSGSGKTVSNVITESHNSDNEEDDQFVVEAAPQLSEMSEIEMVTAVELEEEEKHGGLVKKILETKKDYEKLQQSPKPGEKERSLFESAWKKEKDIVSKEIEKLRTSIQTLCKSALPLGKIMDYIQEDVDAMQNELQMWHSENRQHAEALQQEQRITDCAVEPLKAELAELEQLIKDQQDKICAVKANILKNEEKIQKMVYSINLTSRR
Described as above.

Protein sequences, listed by entry. Tags and fused reporters are not part of them.
UniProt P08670: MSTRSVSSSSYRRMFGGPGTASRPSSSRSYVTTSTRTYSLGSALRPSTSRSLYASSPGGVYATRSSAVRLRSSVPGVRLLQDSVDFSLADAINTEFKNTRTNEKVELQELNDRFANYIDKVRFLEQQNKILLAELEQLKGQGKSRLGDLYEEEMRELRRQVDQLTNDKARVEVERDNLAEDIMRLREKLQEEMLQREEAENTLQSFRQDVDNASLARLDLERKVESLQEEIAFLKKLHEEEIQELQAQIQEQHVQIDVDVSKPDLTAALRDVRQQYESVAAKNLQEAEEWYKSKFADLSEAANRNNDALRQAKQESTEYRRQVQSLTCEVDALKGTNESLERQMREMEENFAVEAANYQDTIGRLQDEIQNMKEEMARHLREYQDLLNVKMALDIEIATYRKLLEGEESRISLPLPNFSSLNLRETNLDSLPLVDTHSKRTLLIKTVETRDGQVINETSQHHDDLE
UniProt O60303: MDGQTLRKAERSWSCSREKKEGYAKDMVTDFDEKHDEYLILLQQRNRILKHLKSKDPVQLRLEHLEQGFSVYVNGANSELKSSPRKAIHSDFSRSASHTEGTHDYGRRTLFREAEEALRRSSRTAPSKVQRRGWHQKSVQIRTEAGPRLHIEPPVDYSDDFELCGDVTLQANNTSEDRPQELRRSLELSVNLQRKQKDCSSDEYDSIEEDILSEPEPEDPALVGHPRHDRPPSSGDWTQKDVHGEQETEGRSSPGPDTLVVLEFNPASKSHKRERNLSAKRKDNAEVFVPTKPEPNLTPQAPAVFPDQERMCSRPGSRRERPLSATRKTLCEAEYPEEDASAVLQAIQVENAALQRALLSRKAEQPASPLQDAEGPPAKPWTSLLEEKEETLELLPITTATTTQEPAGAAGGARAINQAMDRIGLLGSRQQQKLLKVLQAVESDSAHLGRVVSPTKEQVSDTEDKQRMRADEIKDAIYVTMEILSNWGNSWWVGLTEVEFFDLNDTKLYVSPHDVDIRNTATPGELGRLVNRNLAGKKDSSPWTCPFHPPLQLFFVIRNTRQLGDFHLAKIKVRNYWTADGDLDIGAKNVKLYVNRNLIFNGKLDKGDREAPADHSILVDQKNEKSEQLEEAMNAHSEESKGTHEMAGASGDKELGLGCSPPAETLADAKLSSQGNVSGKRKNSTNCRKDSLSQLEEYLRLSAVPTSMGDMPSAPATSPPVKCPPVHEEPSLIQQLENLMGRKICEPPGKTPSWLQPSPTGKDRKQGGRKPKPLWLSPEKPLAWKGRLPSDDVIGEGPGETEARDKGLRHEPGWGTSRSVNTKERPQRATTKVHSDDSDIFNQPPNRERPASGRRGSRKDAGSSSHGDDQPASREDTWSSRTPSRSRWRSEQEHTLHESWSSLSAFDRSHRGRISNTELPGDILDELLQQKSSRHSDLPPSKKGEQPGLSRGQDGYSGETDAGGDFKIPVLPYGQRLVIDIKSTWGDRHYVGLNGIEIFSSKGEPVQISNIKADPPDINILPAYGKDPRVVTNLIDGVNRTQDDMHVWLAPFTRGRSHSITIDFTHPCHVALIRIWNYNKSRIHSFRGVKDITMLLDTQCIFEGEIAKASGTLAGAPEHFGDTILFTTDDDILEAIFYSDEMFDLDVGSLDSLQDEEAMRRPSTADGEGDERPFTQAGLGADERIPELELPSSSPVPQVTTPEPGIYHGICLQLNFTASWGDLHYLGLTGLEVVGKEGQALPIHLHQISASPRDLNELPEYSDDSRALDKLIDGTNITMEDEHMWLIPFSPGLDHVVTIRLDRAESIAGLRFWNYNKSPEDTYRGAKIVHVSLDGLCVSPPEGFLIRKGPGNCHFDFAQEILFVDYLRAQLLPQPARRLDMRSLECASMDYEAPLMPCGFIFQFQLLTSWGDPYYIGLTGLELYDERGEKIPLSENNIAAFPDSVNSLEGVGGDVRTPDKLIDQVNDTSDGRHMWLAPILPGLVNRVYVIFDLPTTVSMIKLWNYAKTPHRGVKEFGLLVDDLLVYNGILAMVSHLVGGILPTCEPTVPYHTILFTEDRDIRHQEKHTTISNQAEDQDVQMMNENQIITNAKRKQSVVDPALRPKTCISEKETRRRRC
UniProt P61006: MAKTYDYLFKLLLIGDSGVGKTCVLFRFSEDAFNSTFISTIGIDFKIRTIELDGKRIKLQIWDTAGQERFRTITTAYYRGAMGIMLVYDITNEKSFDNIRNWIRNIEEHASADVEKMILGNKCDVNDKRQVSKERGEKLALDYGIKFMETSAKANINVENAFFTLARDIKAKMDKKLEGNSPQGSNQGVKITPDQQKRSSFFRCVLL
UniProt Q8IY31: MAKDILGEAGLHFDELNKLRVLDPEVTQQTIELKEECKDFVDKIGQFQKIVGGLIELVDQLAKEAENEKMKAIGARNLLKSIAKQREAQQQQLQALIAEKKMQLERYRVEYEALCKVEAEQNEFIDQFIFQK

A further assay deals with CBY1 (human) (UniProt Q9Y3M2). The assay is described as follows: affinity purification with mass spectrometry; SF-TAP-tagged bait overexpressed in HEK293T; lysis in 0.5% NP-40 in TBS (30 mM Tris-HCl pH 7.4, 150 mM NaCl); two steps at 4 °C: Strep-Tactin superflow (desthiobiotin elution), then anti-FLAG M2 agarose (FLAG peptide elution); LC-MS/MS; interactions scored by socioaffinity.

The target of another assay is T2, TTC30B (human) (UniProt Q8N4P2).
T2 sequence: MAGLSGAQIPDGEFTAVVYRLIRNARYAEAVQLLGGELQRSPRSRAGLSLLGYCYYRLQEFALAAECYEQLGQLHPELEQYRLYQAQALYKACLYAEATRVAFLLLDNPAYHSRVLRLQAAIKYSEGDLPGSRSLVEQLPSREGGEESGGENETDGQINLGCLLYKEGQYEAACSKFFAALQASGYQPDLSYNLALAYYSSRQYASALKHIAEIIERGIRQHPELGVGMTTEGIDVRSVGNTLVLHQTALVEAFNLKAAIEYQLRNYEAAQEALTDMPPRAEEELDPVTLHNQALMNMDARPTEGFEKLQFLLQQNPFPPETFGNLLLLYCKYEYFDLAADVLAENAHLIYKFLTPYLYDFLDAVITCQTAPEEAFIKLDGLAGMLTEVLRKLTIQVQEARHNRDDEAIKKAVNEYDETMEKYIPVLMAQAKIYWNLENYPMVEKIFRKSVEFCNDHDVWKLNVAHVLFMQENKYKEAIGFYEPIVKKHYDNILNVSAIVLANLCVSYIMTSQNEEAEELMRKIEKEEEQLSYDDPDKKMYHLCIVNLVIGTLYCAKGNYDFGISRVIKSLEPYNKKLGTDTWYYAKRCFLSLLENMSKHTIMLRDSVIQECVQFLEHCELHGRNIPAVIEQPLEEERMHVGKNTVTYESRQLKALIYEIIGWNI
As to the kind of experiment: affinity purification with mass spectrometry; SF-TAP of tagged baits overexpressed in HEK293T (Strep-Tactin, then anti-FLAG M2 agarose, FLAG peptide elution; lysis 0.5% NP-40 in TBS, 4 °C); LC-MS/MS; interactions scored by socioaffinity (spoke and matrix evidence), FDR/FPR≤0.1.

Experimental findings from PMC4869170 are described below.

Results are given in words; binding and its absence hold for the method and conditions named. Binding seen in cells or lysates may run through a third protein. A yes stands for co-enrichment or nearness to the bait. Other partners may have been found.

B1: NEFL (protein, UniProt P07196 1-543)
chain: MSSFSYEPYYSTSYKRRYVETPRVHISSVRSGYSTARSAYSSYSAPVSSSLSVRRSYSSSSGSLMPSLENLDLSQVAAISNDLKSIRTQEKAQLQDLNDRFASFIERVHELEQQNKVLEAELLVLRQKHSEPSRFRALYEQEIRDLRLAAEDATNEKQALQGEREGLEETLRNLQARYEEEVLSREDAEGRLMEARKGADEAALARAELEKRIDSLMDEISFLKKVHEEEIAELQAQIQYAQISVEMDVTKPDLSAALKDIRAQYEKLAAKNMQNAEEWFKSRFTVLTESAAKNTDAVRAAKDEVSESRRLLKAKTLEIEACRGMNEALEKQLQELEDKQNADISAMQDTINKLENELRTTKSEMARYLKEYQDLLNVKMALDIEIAAYRKLLEGEETRLSFTSVGSITSGYSQSSQVFGRSAYGGLQTSSYLMSTRSFPSYYTSHVQEEQIEVEETIEAAKAEEAKDEPPSEGEAEEEEKDKEEAEEEEAAEEEEAAKEESEEAKEEEEGGEGEEGEETKEAEEEEKKVEGAGEEQAAKKKD
Take B1: the binding entry with vimentin (human) was “binds”.

B2: ICK (protein, UniProt Q9UPZ9 1-632)
chain: MNRYTTIRQLGDGTYGSVLLGRSIESGELIAIKKMKRKFYSWEECMNLREVKSLKKLNHANVVKLKEVIRENDHLYFIFEYMKENLYQLIKERNKLFPESAIRNIMYQILQGLAFIHKHGFFHRDLKPENLLCMGPELVKIADFGLAREIRSKPPYTDYVSTRWYRAPEVLLRSTNYSSPIDVWAVGCIMAEVYTLRPLFPGASEIDTIFKICQVLGTPKKTDWPEGYQLSSAMNFRWPQCVPNNLKTLIPNASSEAVQLLRDMLQWDPKKRPTASQALRYPYFQVGHPLGSTTQNLQDSEKPQKGILEKAGPPPYIKPVPPAQPPAKPHTRISSRQHQASQPPLHLTYPYKAEVSRTDHPSHLQEDKPSPLLFPSLHNKHPQSKITAGLEHKNGEIKPKSRRRWGLISRSTKDSDDWADLDDLDFSPSLSRIDLKNKKRQSDDTLCRFESVLDLKPSEPVGTGNSAPTQTSYQRRDTPTLRSAAKQHYLKHSRYLPGISIRNGILSNPGKEFIPPNPWSSSGLSGKSSGTMSVISKVNSVGSSSTSSSGLTGNYVPSFLKKEIGSAMQRVHLAPIPDPSPGYSSLKAMRPHPGRPFFHTQPRSTPGLIPRPPAAQPVHGRTDWASKYASRR
On to B2, for which the binding result with KIAA0556 (human) is recorded as “binds”.

B3: stomatin (protein, UniProt P27105 1-288)
chain: MAEKRHTRDSEAQRLPDSFKDSPSKGLGPCGWILVAFSFLFTVITFPISIWMCIKIIKEYERAIIFRLGRILQGGAKGPGLFFILPCTDSFIKVDMRTISFDIPPQEILTKDSVTISVDGVVYYRVQNATLAVANITNADSATRLLAQTTLRNVLGTKNLSQILSDREEIAHNMQSTLDDATDAWGIKVERVEIKDVKLPVQLQRAMAAEAEASREARAKVIAAEGEMNASRALKEASMVITESPAALQLRYLQTLTTIAAEKNSTIVFPLPIDMLQGIIGAKHSHLG
On to B3, for which the binding result with RAB8A (human) is recorded as “binds”.

B4: BLOC1S2 (protein, UniProt Q6QNY1 1-142)
chain: MAAAAEGVLATRSDEPARDDAAVETAEEAKEPAEADITELCRDMFSKMATYLTGELTATSEDYKLLENMNKLTSLKYLEMKDIAINISRNLKDLNQKYAGLQPYLDQINVIEEQVAALEQAAYKLDAYSKKLEAKYKKLEKR
In the case of B4, the binding result in the assay with IFT20 (human) and with TRAF3IP1 (human) was “binds” each time.

B5: CCDC8 (protein, UniProt Q9H0W5 1-538)
chain: MLQIGEDVDYLLIPREVRLAGGVWRVISKPATKEAEFRERLTQFLEEEGRTLEDVARIMEKSTPHPPQPPKKPKEPRVRRRVQQMVTPPPRLVVGTYDSSNASDSEFSDFETSRDKSRQGPRRGKKVRKMPVSYLGSKFLGSDLESEDDEELVEAFLRRQEKQPSAPPARRRVNLPVPMFEDNLGPQLSKADRWREYVSQVSWGKLKRRVKGWAPRAGPGVGEARLASTAVESAGVSSAPEGTSPGDRLGNAGDVCVPQASPRRWRPKINWASFRRRRKEQTAPTGQGADIEADQGGEAADSQREEAIADQREGAAGNQRAGAPADQGAEAADNQREEAADNQRAGAPAEEGAEAADNQREEAADNQRAEAPADQRSQGTDNHREEAADNQRAEAPADQGSEVTDNQREEAVHDQRERAPAVQGADNQRAQARAGQRAEAAHNQRAGAPGIQEAEVSAAQGTTGTAPGARARKQVKTVRFQTPGRFSWFCKRRRAFWHTPRLPTLPKRVPRAGEARNLRVLRAEARAEAEQGEQEDQL
Regarding B5, the binding result with CBY1 (human) is given as “binds”.

B6: TMEM41B (protein, UniProt Q5BJD5 1-291)
chain: MAKGRVAERSQLGAHHTTPVGDGAAGTRGLAAPGSRDHQKEKSWVEAGSARMSLLILVSIFLSAAFVMFLVYKNFPQLSEEERVNMKVPRDMDDAKALGKVLSKYKDTFYVQVLVAYFATYIFLQTFAIPGSIFLSILSGFLYPFPLALFLVCLCSGLGASFCYMLSYLVGRPVVYKYLTEKAVKWSQQVERHREHLINYIIFLRITPFLPNWFINITSPVINVPLKVFFIGTFLGVAPPSFVAIKAGTTLYQLTTAGEAVSWNSIFILMILAVLSILPAIFQKKLKQKFE
On to B6, for which, in the assay with TTC30B (human), the binding entry is listed as “binds”.

B7: MAK (protein, UniProt P20794 1-623)
chain: MNRYTTMRQLGDGTYGSVLMGKSNESGELVAIKRMKRKFYSWDECMNLREVKSLKKLNHANVIKLKEVIRENDHLYFIFEYMKENLYQLMKDRNKLFPESVIRNIMYQILQGLAFIHKHGFFHRDMKPENLLCMGPELVKIADFGLARELRSQPPYTDYVSTRWYRAPEVLLRSSVYSSPIDVWAVGSIMAELYMLRPLFPGTSEVDEIFKICQVLGTPKKSDWPEGYQLASSMNFRFPQCVPINLKTLIPNASNEAIQLMTEMLNWDPKKRPTASQALKHPYFQVGQVLGPSSNHLESKQSLNKQLQPLESKPSLVEVEPKPLPDIIDQVVGQPQPKTSQQPLQPIQPPQNLSVQQPPKQQSQEKPPQTLFPSIVKNMPTKPNGTLSHKSGRRRWGQTIFKSGDSWEELEDYDFGASHSKKPSMGVFKEKRKKDSPFRLPEPVPSGSNHSTGENKSLPAVTSLKSDSELSTAPTSKQYYLKQSRYLPGVNPKKVSLIASGKEINPHTWSNQLFPKSLGPVGAELAFKRSNAGNLGSYATYNQSGYIPSFLKKEVQSAGQRIHLAPLNATASEYTWNTKTGRGQFSGRTYNPTAKNLNIVNRAQPIPSVHGRTDWVAKYGGHR
In the case of B7, the binding result with KIAA0556 (human) was “binds”.

B8: RAB3IP (protein, UniProt Q96QF0 1-476)
chain: MGLKKMKGLSYDEAFAMANDPLEGFHEVNLASPTSPDLLGVYESGTQEQTTSPSVIYRPHPSALSSVPIQANALDVSELPTQPVYSSPRRLNCAEISSISFHVTDPAPCSTSGVTAGLTKLTTRKDNYNAEREFLQGATITEACDGSDDIFGLSTDSLSRLRSPSVLEVREKGYERLKEELAKAQRELKLKDEECERLSKVRDQLGQELEELTASLFEEAHKMVREANIKQATAEKQLKEAQGKIDVLQAEVAALKTLVLSSSPTSPTQEPLPGGKTPFKKGHTRNKSTSSAMSGSHQDLSVIQPIVKDCKEADLSLYNEFRLWKDEPTMDRTCPFLDKIYQEDIFPCLTFSKSELASAVLEAVENNTLSIEPVGLQPIRFVKASAVECGGPKKCALTGQSKSCKHRIKLGDSSNYYYISPFCRYRITSVCNFFTYIRYIQQGLVKQQDVDQMFWEVMQLRKEMSLAKLGYFKEEL
On to B8, for which the binding entry in the assay with RAB8A (human) was “binds”.
